Data on 1 substance can be found in PMC3431329.

Amino acid sequences for entries named in this document (tags omitted).
UniProt Q99459: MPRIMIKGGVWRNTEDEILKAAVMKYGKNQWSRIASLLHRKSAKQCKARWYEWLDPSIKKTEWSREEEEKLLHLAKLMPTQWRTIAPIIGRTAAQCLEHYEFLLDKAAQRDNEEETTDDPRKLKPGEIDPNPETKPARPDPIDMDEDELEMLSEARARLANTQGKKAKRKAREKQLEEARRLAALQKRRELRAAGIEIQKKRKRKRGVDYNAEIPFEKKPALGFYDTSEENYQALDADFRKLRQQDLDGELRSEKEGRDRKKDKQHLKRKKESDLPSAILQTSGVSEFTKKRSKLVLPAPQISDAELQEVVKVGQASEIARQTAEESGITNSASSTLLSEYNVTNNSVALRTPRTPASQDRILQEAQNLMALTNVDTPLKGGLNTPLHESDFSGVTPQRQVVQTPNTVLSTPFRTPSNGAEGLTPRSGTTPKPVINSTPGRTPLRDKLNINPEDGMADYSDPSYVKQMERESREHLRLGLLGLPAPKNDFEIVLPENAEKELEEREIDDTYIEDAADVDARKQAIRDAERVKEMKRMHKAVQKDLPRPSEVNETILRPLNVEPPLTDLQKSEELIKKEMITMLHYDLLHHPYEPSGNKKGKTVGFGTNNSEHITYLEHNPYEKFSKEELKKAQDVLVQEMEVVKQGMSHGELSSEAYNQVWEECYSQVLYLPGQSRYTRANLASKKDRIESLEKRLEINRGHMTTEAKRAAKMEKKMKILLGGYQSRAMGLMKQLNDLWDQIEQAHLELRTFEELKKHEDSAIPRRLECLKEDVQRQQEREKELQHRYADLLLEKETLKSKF

These are yes or no findings as the source states them, for the method shown. Binding seen in cells or lysates may run through a third protein. These calls come from enrichment with a bait or labelling near it, and not all partners need be listed. Tags and fused reporters may be left off the sequences shown.

This test deals with T1, human CCDC94 (coiled-coil domain containing 94), tagged bait (human) (UniProt Q9BW85).
T1 sequence: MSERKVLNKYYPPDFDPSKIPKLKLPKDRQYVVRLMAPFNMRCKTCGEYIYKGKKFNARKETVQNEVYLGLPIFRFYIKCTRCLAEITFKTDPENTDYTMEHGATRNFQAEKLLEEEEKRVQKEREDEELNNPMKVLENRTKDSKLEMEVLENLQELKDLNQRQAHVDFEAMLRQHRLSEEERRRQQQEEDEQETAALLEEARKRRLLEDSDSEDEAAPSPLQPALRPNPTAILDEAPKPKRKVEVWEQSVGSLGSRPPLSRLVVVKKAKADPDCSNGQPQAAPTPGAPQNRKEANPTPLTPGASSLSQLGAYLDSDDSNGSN
Kind of test: affinity purification with mass spectrometry; tandem-affinity purification (two rounds) of tagged human CCDC94 from detergent-solubilized 293T cell lines; trypsinized, LC-MS/MS.

Turning to CDC5L (from UniProt Q99459 1-802), the binding entry is recorded as “binds”.
